Data as given in PubChem BioAssay AID1224830 (NIAID, 2016)
The whole screen tested about 18,000 reagents; shown is a random part of them. About 2,900 of them (16%) count as active. 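Calls are made per well; low scores hint the gene aids the LPS response, high scores that it dampens it.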 A number with no mark means an inactive call. Repeated entries: four replicate wells of each siRNA pool.

Assay: 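Host factors that control LPS-induced TNF expression in human macrophages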 (primary screen)
Cells: human THP-1 monocytic leukaemia cells, TNF dual-luciferase reporter clone, PMA-differentiated to macrophage-like cells
Knock-down reagent: siRNA pool against human genes, 50 nM
Time to read-out: LPS for 4 h, given about 3 days after siRNA transfection
Treatment: bacterial LPS (TLR4 ligand), 10 ng/ml
Read-out: 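TNF firefly reporter luminescence divided by renilla, normalised to the plate median, then turned into a robust z-score for each replicate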
Reading the numbers: TNF reporter robust z-score: higher = stronger TNF reporter response to LPS
Rule for the call: 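a well is active when its z-score exceeds 2.8 or falls below -1.5; control wells carry no call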

gene symbol | TNF reporter robust z-score
CA3 | -1.03
CA3 | 0.48
CA3 | 0.58
CA3 | 0.94
HYOU1 | -0.58
HYOU1 | 0.5
HYOU1 | -0.23
HYOU1 | -0.49
NFATC2IP | -1.3
NFATC2IP | -1.25
NFATC2IP | -0.53
NFATC2IP | -0.23
MYF6 | -1.44
MYF6 | -0.79
MYF6 | -0.6
MYF6 | -0.61
TOX3 | 2.33
TOX3 | 3.73 (active)
TOX3 | 1.63
TOX3 | 1.78
APEX1 | -0.79
APEX1 | -0.66
APEX1 | -0.54
APEX1 | -1.14
CCL3 | -1.37
CCL3 | -1.4
CCL3 | -0.94
CCL3 | -0.87
ACSS3 | -0.5
ACSS3 | -1.17
ACSS3 | -0.69
ACSS3 | -0.82
GMFG | 0.04
GMFG | 0.19
GMFG | 0.33
GMFG | 1.79
CPSF3 | 0.14
CPSF3 | 0.05
CPSF3 | 0.08
CPSF3 | 0.01
FAF2 | 1.06
FAF2 | 1.91
FAF2 | 1.39
FAF2 | 0.93
GPD1L | 1.17
GPD1L | 1.13
GPD1L | 0.4
GPD1L | 1.14

7 entries already listed, arranged by “TNF reporter robust z-score”, ascending:
gene symbol | TNF reporter robust z-score
APEX1 | -1.14
APEX1 | -0.79
APEX1 | -0.66
APEX1 | -0.54
TOX3 | 1.63
TOX3 | 1.78
TOX3 | 3.73 (active)
